These are yes or no findings as the source states them, for the method shown. Binding seen in cells or lysates may run through a third protein. Some results given as binding are weak or reduced against the parent protein; the word gives no strength.
Key:
[1] = target: SOX17 (human (endogenous in hPSC-derived DE cells)) (UniProt Q9H6I2); test: co-IP
[2] = target: ß-catenin (CTNNB1) (human (endogenous in hPSC-derived DE cells)) (UniProt P35222); test: co-IP

Amino acid sequences for entries named in this document (tags omitted).
UniProt Q9H6I2: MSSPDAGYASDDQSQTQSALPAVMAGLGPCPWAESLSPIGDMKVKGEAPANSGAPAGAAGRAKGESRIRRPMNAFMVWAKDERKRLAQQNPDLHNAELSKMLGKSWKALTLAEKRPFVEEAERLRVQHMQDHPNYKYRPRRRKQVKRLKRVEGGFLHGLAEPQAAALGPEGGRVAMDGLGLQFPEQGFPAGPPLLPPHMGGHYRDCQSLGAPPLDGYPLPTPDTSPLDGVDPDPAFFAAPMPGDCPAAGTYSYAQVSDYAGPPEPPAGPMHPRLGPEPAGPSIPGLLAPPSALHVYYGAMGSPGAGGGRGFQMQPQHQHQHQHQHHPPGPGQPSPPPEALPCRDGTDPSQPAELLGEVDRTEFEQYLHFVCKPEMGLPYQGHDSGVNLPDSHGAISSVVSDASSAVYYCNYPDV
UniProt P35222: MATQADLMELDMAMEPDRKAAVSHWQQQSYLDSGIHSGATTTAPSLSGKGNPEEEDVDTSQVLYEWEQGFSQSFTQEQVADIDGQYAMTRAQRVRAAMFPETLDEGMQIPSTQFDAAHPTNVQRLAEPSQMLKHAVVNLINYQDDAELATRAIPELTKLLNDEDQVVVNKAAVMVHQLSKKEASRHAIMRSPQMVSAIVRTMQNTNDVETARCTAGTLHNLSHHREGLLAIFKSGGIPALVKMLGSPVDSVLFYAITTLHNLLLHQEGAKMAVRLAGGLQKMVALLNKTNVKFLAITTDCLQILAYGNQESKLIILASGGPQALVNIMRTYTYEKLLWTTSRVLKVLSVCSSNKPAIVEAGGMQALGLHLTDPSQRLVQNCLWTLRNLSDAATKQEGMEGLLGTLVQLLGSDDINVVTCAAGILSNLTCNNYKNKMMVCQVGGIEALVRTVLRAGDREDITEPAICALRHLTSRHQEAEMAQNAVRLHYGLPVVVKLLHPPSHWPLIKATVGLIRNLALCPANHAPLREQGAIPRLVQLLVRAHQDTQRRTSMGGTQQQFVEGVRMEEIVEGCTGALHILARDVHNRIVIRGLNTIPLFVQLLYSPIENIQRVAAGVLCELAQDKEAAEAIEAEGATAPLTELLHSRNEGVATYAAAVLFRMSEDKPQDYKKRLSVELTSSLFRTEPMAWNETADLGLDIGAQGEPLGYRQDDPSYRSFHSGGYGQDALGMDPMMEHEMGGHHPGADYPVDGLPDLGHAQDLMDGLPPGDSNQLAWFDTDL
UniProt Q9NQB0: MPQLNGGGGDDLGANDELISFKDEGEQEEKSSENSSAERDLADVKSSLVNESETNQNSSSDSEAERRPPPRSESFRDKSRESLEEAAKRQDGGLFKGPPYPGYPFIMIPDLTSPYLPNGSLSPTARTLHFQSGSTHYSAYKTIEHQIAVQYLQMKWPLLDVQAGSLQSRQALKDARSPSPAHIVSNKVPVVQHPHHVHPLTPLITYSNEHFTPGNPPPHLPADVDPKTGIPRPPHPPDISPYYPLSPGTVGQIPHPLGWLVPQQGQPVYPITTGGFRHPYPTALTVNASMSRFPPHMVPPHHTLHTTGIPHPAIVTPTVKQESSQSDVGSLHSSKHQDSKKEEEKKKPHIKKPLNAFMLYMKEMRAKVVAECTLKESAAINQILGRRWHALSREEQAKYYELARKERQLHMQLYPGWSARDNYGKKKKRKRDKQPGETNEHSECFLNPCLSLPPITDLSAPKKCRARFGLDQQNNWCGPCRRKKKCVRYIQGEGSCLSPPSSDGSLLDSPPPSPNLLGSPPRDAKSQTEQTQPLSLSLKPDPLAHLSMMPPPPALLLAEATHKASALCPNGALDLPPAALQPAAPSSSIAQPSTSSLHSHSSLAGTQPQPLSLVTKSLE
UniProt P51532: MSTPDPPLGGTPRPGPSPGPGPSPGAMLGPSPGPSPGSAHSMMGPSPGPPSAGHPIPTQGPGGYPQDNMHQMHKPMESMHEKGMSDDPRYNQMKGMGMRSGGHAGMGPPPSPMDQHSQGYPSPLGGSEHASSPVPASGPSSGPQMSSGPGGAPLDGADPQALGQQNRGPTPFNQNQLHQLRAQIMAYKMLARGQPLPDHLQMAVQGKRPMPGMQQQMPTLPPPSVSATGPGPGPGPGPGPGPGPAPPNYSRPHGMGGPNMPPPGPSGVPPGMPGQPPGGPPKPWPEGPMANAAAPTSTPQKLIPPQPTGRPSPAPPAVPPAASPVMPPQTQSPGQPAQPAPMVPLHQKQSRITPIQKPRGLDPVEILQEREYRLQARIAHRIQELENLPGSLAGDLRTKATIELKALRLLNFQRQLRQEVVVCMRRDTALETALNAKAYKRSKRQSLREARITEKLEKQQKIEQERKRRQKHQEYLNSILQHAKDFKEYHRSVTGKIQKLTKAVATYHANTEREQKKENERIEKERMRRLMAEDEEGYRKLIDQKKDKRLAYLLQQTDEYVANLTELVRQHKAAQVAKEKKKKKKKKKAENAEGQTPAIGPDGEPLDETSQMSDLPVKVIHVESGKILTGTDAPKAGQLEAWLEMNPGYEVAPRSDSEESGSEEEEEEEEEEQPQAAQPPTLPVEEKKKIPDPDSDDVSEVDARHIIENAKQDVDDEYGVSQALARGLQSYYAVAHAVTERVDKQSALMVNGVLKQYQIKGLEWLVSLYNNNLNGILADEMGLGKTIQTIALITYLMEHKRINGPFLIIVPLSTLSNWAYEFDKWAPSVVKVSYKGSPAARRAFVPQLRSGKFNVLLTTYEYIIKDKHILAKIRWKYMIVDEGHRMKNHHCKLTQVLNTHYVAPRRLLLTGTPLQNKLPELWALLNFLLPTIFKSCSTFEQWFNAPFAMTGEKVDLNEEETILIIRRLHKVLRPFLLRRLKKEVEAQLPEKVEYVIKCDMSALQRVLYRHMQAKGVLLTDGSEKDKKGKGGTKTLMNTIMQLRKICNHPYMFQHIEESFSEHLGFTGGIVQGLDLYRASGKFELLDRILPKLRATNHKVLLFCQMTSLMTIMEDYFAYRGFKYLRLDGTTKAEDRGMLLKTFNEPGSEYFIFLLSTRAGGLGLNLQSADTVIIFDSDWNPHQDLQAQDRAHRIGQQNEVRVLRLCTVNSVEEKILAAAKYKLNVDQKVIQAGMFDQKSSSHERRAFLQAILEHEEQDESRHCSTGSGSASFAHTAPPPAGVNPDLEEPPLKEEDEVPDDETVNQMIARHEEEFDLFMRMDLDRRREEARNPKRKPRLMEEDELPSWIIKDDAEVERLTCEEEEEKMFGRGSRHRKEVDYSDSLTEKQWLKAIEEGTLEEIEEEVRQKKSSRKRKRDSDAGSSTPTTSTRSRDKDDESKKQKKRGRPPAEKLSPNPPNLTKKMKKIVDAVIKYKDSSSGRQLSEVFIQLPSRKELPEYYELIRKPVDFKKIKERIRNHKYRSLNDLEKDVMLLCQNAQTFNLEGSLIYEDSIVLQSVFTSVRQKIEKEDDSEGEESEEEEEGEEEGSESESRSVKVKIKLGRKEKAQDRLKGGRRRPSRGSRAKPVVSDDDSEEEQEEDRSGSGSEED

Substance	binding [1]	binding [2]
TCF7L2 (from UniProt Q9NQB0 1-619)	no binding	–
BRG1 (from UniProt P51532 1-1647)	binds	binds
SOX17 (from UniProt Q9H6I2 1-414)	–	binds
ß-catenin (CTNNB1) (from UniProt P35222 1-781)	binds	–
